Some of the results follow. Residues, ends and D or L forms follow the SMILES beside them. *: point of attachment. Cbz = O=C(OCc1ccccc1)*
Columns and labels:
Assay in all cases: log2 fold change, soluble protein after heating vs DMSO (PISA); higher = thermal stabilisation; K562 cells, 10 uM, 30 min; active = over 0.2 and 3.5 SD of the protein, either way, in both replicates (recomputed)
erlotinib = compound: C#Cc1cccc(Nc2ncnc3cc(OCCOC)c(OCCOC)cc23)c1 [erlotinib]
Outline: (§1)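 K562 cells at 2×10^6 cells/mL were given 10 μM compound for 30 min. Aliquots then went through 3 min of heating across 48°C-58°C, were pooled, and were extracted in PBS with 0.5% NP-40 at 4°C, and the supernatant after 21,000xg for 90 min was quantified by TMTpro 16plex LC-MS/MS with channel sums equalised. Thermal stability relative to control samples, from duplicates, is given as log2 fold change.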

Protein sequences, listed by entry. Tags and fused reporters are not part of them. Lines headed by an entry give the natural chain unless they say otherwise; changes in a name come on top.
UniProt Q8IZD2: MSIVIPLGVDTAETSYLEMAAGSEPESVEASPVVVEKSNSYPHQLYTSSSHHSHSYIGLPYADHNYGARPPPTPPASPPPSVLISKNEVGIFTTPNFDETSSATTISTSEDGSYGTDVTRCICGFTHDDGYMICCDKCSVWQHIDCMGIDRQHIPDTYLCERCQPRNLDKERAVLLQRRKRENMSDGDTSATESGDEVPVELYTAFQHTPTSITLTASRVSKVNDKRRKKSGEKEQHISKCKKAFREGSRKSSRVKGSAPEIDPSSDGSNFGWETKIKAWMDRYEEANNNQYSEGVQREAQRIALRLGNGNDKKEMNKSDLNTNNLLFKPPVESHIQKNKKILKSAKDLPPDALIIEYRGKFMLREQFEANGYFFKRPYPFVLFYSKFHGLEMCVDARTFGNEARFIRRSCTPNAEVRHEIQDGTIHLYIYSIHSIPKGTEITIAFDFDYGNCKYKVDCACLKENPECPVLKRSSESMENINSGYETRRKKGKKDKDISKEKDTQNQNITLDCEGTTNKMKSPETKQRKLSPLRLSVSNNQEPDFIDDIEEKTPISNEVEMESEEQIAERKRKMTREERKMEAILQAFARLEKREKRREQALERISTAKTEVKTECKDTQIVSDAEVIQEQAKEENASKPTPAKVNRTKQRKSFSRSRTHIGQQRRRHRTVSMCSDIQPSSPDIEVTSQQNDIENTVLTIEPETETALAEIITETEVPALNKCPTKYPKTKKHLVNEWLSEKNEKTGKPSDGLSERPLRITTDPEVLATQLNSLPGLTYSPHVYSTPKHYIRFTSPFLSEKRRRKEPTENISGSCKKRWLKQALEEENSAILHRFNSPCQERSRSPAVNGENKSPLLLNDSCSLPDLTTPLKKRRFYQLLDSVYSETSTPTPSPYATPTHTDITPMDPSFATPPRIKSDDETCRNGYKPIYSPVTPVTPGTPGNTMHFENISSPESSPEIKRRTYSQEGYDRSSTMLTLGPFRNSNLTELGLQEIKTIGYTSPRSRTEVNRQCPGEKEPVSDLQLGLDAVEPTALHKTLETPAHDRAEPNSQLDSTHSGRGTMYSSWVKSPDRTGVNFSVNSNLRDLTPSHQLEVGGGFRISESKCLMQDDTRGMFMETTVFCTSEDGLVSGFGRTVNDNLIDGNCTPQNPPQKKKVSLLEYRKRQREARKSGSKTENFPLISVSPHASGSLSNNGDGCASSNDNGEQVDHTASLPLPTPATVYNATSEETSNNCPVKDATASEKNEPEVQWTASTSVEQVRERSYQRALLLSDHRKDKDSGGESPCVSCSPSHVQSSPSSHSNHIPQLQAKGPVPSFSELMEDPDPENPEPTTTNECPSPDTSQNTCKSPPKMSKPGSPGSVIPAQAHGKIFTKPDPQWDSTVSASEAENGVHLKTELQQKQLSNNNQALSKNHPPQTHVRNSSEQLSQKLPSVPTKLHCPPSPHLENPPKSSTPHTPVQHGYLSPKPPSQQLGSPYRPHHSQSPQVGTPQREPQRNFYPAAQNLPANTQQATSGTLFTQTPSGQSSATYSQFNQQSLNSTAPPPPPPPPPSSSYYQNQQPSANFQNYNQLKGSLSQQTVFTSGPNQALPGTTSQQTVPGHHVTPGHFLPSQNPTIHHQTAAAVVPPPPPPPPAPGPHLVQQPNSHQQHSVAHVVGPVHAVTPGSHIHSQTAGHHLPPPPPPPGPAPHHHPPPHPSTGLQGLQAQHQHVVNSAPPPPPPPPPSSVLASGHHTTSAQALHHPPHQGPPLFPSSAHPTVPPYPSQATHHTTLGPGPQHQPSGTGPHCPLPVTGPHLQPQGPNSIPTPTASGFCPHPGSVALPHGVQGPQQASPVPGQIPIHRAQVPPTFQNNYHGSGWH
UniProt Q8NB78: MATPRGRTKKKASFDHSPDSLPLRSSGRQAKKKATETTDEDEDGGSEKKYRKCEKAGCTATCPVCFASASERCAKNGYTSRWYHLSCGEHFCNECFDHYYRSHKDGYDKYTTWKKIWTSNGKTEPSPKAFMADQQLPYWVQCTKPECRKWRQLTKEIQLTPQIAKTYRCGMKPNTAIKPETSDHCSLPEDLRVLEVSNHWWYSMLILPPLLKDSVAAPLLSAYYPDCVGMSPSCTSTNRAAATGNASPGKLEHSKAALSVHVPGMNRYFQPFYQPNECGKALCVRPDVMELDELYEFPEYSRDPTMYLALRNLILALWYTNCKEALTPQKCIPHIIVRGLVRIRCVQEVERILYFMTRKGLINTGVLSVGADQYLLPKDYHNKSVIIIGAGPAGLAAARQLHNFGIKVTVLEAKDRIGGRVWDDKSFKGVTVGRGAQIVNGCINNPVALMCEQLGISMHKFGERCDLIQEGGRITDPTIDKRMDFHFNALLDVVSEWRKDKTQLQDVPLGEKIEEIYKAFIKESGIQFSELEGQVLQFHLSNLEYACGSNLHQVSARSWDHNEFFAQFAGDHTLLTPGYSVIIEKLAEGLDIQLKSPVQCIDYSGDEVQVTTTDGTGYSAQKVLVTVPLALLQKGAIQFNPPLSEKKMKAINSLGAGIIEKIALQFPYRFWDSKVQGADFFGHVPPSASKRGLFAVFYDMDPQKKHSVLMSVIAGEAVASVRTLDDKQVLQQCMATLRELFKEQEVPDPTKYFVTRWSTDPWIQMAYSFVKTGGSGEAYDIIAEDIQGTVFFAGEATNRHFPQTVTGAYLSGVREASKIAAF
UniProt P05412, whole entry, looked up: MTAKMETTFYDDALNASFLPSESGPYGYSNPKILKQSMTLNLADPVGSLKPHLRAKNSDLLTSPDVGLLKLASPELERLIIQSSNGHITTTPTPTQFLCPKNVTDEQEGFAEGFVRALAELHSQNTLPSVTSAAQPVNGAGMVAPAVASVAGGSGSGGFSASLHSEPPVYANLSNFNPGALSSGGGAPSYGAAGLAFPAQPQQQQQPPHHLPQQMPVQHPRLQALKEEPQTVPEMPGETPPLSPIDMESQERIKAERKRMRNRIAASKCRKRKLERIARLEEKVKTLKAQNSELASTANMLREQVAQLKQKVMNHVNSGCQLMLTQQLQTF
UniProt P0C870: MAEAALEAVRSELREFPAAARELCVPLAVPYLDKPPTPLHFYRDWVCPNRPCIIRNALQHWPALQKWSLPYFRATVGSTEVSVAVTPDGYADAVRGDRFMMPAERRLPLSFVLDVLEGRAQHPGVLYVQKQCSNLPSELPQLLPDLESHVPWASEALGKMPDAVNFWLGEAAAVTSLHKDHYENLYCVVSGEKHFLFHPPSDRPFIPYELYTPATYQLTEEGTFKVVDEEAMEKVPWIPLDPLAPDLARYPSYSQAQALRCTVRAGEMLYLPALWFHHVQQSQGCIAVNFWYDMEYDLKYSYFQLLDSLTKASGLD
UniProt Q9BW62: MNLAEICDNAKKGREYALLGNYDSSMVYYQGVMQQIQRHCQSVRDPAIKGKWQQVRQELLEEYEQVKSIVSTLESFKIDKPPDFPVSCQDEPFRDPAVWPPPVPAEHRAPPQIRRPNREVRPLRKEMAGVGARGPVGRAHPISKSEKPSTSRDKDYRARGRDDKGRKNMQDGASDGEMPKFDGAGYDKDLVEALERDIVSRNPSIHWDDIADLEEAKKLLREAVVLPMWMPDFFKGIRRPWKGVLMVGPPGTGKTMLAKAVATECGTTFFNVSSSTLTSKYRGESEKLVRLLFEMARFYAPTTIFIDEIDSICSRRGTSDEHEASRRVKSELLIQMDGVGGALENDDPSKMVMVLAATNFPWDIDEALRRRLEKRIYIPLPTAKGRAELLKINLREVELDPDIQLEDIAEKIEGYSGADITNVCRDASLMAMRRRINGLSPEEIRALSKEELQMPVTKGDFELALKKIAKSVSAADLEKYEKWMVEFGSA
UniProt Q9NZM3: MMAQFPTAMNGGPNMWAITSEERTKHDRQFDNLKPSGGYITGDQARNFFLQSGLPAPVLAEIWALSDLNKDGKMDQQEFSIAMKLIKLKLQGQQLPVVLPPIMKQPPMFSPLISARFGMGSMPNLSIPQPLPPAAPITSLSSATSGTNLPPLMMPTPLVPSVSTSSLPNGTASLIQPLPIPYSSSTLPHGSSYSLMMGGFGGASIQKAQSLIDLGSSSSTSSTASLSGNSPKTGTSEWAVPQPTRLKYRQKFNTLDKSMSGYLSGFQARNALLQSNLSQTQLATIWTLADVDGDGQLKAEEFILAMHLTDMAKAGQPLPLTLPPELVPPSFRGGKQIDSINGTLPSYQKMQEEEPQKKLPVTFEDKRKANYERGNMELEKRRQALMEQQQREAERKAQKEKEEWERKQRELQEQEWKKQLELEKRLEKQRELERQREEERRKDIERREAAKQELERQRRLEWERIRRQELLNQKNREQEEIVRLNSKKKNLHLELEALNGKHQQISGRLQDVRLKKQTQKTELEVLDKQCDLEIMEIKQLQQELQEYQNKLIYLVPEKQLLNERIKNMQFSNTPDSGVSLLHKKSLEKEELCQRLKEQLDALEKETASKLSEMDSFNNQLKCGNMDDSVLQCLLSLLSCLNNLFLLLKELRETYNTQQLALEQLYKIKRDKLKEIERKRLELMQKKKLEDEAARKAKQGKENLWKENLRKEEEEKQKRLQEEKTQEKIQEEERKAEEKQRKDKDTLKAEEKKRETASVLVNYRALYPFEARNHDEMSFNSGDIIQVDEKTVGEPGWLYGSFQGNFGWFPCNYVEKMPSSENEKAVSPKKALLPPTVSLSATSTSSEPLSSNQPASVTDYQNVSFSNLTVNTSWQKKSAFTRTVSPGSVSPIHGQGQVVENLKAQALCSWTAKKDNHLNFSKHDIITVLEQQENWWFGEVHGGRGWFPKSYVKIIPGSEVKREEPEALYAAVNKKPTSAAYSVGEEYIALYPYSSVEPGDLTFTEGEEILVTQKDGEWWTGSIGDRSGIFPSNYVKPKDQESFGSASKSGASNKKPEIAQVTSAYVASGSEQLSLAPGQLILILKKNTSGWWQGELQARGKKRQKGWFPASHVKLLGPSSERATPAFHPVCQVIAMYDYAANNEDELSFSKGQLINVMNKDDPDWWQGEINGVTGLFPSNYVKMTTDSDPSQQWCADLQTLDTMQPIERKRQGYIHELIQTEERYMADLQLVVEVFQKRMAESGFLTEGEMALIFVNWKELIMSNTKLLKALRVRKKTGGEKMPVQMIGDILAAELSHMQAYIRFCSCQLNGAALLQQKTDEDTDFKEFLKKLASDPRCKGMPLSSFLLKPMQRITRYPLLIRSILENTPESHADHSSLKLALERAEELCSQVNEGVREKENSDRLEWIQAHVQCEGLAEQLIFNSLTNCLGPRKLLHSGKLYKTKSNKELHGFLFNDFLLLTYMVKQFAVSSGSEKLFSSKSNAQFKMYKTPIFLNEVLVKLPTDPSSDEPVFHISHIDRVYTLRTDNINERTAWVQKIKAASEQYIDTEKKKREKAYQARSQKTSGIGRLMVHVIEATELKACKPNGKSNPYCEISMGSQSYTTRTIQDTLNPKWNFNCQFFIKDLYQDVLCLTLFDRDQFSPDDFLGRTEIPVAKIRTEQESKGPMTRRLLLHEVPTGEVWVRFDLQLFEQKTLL
UniProt Q969F8, whole entry, looked up: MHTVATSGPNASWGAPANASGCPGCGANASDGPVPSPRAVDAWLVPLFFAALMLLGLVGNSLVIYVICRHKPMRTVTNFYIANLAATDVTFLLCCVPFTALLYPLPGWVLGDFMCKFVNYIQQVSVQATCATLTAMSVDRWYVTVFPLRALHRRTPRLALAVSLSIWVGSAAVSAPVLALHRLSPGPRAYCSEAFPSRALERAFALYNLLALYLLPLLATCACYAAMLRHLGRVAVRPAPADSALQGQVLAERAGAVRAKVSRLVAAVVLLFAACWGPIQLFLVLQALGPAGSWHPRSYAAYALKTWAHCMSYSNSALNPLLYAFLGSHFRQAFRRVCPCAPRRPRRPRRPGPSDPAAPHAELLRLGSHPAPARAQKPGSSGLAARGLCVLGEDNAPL
UniProt O95279: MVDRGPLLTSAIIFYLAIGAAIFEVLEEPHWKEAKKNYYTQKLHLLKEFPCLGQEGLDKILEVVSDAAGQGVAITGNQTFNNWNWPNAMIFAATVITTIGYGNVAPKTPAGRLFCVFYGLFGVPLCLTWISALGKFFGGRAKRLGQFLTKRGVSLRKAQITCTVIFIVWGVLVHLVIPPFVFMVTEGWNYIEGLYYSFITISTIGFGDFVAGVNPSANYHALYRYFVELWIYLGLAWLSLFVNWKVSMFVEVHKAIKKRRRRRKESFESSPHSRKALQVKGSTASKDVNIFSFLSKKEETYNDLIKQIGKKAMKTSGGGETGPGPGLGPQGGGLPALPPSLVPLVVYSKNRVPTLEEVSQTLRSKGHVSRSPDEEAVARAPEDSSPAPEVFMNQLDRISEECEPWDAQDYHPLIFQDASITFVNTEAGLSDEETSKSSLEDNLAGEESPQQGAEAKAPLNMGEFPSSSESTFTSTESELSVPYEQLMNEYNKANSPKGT

[1] = compound: C1=CC(=C(C=C1Cl)C2=NC3=NC=CN=C3C(=N2)NC4=CC=NC=C4)F
Outline: as §1

[2] = compound: C1=CC(=CC=C1C2=NC3=C(N2)C=C(C=C3)C(=O)N)OC4=CC=C(C=C4)Cl
Outline: as §1

[3] = compound: CC(C)(O)CC(=O)NCCn1ccc2ncnc(Nc3ccc(Oc4cccc(C(F)(F)F)c4)c(Cl)c3)c21
Outline: as §1

[4] = compound: CC(C)C1=C2N=C(C=C(N2N=C1)NCC3=CC=CC=C3)NCCCCCCN
Outline: as §1

[5] = compound: C1=CC2=NC=CN=C2C=C1/C=C/3\C(=O)NC(=O)S3
Outline: as §1

[6] = compound: C1CCN(C1)C(=O)NC2=CC=CC(=C2)NC3=NC=C(C(=N3)NCCC4=CN=CN4)Br
Outline: as §1

[7] = compound: C1CN(CCC1(CC2=CC=C(C=C2)Cl)N)C3=NC=NC4=C3C=CN4
Outline: as §1

IRAK-1-4 Inhibitor I = compound: C1COCCN1CCN2C3=CC=CC=C3N=C2NC(=O)C4=CC(=CC=C4)[N+](=O)[O-] [IRAK-1-4 Inhibitor I]
Outline: as §1

ibrutinib = compound: C=CC(=O)N1CCC[C@@H](n2nc(-c3ccc(Oc4ccccc4)cc3)c3c(N)ncnc32)C1 [ibrutinib]
Outline: as §1

pinometostat = compound: CC(C)N(C[C@H]1O[C@@H](n2cnc3c(N)ncnc32)[C@H](O)[C@@H]1O)[C@H]1C[C@@H](CCc2nc3cc(C(C)(C)C)ccc3[nH]2)C1 [pinometostat]
Outline: as §1

[8] = compound: CC1=C(C(CC(=O)N1)C2=CC=C(C=C2)C(F)(F)F)C(=O)NC3=C(C=C4C(=C3)C=NN4)F
Outline: as §1

[9] = compound: CC1=C(C2=C(C=C1)C(=O)C3=CC=CC=C3N2CCCN)C
Outline: as §1

[10] = compound: C1=CC=C(C=C1)C2=NC(=C(N2)C3=CC=NC=C3)C4=CC(=C(C=C4)Cl)O
Outline: as §1

ralimetinib = compound: CC(C)(C)Cn1c(N)nc2ccc(-c3[nH]c(C(C)(C)C)nc3-c3ccc(F)cc3)nc21 [ralimetinib]
Outline: as §1

[11] = compound: CC(C)C[C@@H](C=O)NC(=O)[C@H](CC(C)C)NC(=O)[C@H](CC(C)C)NC(=O)OCc1ccccc1
Outline: as §1

[12] = compound: C/C(=N\NC(=O)C1=CC(=CC=C1)S(=O)(=O)N2CCOCC2)/C3=C(C=CC(=C3)Cl)O
Outline: as §1

[13] = compound: C1=CC2=C(C=CC(=C2)/C=C\3/C(=O)NC(=NCC4=CC=CS4)S3)N=C1
Outline: as §1

[14] = compound: C1=CC=C2C(=C1)C3=NNC4=CC=CC(=C43)C2=O
Outline: as §1

[15] = compound: CC(=O)c1cnc2ccc(-c3cc(Cl)c(O)c(Cl)c3)nc2c1N[C@H]1CC[C@H](CN(C)C)CC1
Outline: as §1

Measured: log2 fold change

KMT2E (UniProt Q8IZD2)
inactive: erlotinib 0.029 | [1] 0.005 | [2] 0.029 | [3] 0.062 | [4] 0.104

KDM1B (UniProt Q8NB78)
inactive: erlotinib 0.141 | [2] 0.072 | [5] 0 | [6] -0.13 | [7] 0.204 | IRAK-1-4 Inhibitor I -0.075 | ibrutinib -0.042 | [4] -0.185 | pinometostat 0.116 | [8] 0.023 | [9] -0.107

JUN (UniProt P05412)
inactive: erlotinib -0.301 | [2] 0.277 | [5] 0 | [10] -0.254 | [6] 0.069 | [7] -0.123 | ibrutinib 0.43 | ralimetinib 0.04 | [4] -0.074 | [11] 0.129 | [8] 0.202 | [9] 0.037

JMJD7 (UniProt P0C870)
inactive: erlotinib 0.167 | [1] 0.2 | [2] -0.083 | [5] -0.105 | ibrutinib -0.137 | [3] 0.04 | [4] 0.102 | [8] -0.063

KSR2 (UniProt Q6VAB6)
inactive: erlotinib 0.033 | [1] -0.183 | [2] 0.086 | [3] 0.195 | [4] -0.112

KATNAL1 (UniProt Q9BW62)
inactive: [12] 0.039 | [1] -0.004 | [13] -0.064 | [5] -0.124 | [14] -0.088 | [6] 0.233 | [7] -0.034 | IRAK-1-4 Inhibitor I 0.08 | ibrutinib 0.007 | [15] -0.109 | [3] -0.228 | pinometostat -0.274 | [9] 0.136

ITSN2 (UniProt Q9NZM3)
inactive: erlotinib 0.059 | [2] -0.551 | [4] 0.051

KIF26A (UniProt Q9ULI4)
inactive: erlotinib -0.044 | [2] -0.037 | [5] 0.011 | [10] 0.01 | IRAK-1-4 Inhibitor I -0.02 | ibrutinib -0.024 | ralimetinib -0.043 | [4] 0.05 | [11] 0.028 | pinometostat -0.013 | [8] 0.006

KALRN (UniProt O60229)
inactive: erlotinib 0.199 | [1] -0.062 | [2] -0.129 | [5] 0 | ibrutinib 0.044 | [3] 0.046 | [4] 0.113 | [8] 0.131

KISS1R (UniProt Q969F8)
inactive: erlotinib -0.173 | [1] -0.03 | [2] -0.013 | [5] 0.179 | [10] -0.053 | [6] -0.048 | [7] 0.08 | IRAK-1-4 Inhibitor I 0.01 | ibrutinib -0.058 | ralimetinib 0.037 | [3] -0.134 | [4] 0.106 | [11] 0.06 | pinometostat 0.005 | [9] -0.029

KIAA1755 (UniProt Q5JYT7)
inactive: erlotinib -0.026 | [1] -0.166 | [2] -0.024 | [5] 0.08 | [10] -0.056 | [6] 0.094 | [7] 0.024 | IRAK-1-4 Inhibitor I 0.02 | ibrutinib -0.077 | ralimetinib -0.021 | [3] 0.034 | [4] -0.064 | [11] 0.007 | pinometostat -0.021 | [9] 0.105

KCNK5 (UniProt O95279)
inactive: erlotinib -0.101 | [1] -0.128 | [2] 0.077 | [5] 0.095 | IRAK-1-4 Inhibitor I -0.033 | ibrutinib 0.019 | [3] -0.209 | pinometostat 0
active: [4] -2.03

KMT2A isoform 3 (UniProt Q03164)
inactive: erlotinib -0.098 | [2] 0.057 | [10] 0.013 | ralimetinib 0.218 | [4] 0.013 | [11] 0.069

Reference: the supplement of paper PMC10849652
